# Measurements from paper PMC9028714 (Journal of Personalized Medicine, 2022).
# Read-outs that look alike come from different tables or passages of the source.
# How the values were obtained:
# P-gp [1] = system: P-gp
# P-gp [2] = assay: clinical; conditions: human, capillary whole blood (dried blood spots), po, 25 mg, probe fexofenadine, AUCfexofenadine (AUC0–6h), mean ± SD, fexofenadine 25 mg orally
structure (smiles),measurement,setting,value
CC(C)(C(=O)O)c1ccc(C(O)CCCN2CCC(C(O)(c3ccccc3)c3ccccc3)CC2)cc1 (stereo not shown) [fexofenadine],inter-individual variability (CV) of AUCfexofenadine,P-gp [1]; apixaban cohort,67.2%
same,inter-individual variability (CV) of AUCfexofenadine,P-gp [1]; rivaroxaban cohort,71.5%
same,AUC(0-t),P-gp [2]; apixaban cohort,265 ± 178 ng·h/mL
same,AUC(0-t),P-gp [2]; rivaroxaban cohort,238 ± 170 ng·h/mL
